Reference: PubChem BioAssay AID256 (DTP/NCI, 2004)
The list is a part of this screen's results and no random one: it is rich in T/C values a quarter to a half above the control, in often repeated tests (any T/C) and in doses without a T/C. Further doses and runs are listed elsewhere. T/C gives the treated animals as a percentage of the vehicle group. Some entries give survivors of the animals treated and no T/C: the source holds a T/C of zero for them, seemingly a mark for toxic or unscored doses. Some doses without a T/C left all or most animals alive at the check, yet need not have been tolerated: survival well below the control is almost never listed, so the zero probably covers shortened survival too. Counts of survivors are from the toxicity check (mostly the fifth day) where no day follows; animals may have died later. Schedule codes are those of the source, read here as Q, the interval in days (D) or hours (H), X, the number of doses. Some entries hold several experiments; the values are given in rising order. Where survival is the endpoint, the PubChem record calls one and a half times the control and up active, and a quarter to a half above the control has no call in these data; cut-offs in other NCI protocols can differ. Some T/C values carry the count of animals alive at the toxicity check (mostly the fifth day); without a count, all were alive then.

Tested on: CD2F1 mice, L1210 leukemia ip, survival T/C
Test: NCI In Vivo Anticancer Drug Screen. Data for tumor model L1210 Leukemia (intraperitoneal) in CD2F1 (CDF1) mice
Conditions: higher T/C = longer survival
Procedure, shortened: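 Activity against a transplanted murine tumor was judged by comparing the compound group with a vehicle group. The outcome in the treated animals was divided by that in the controls.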

[1] = T/C endpoint: mean survival time, dose: 200.0 mg/kg/injection, schedule: Q01DX001 (ip), vehicle: saline with Tween-80
[2] = T/C endpoint: mean survival time, dose: 100.0 mg/kg/injection, schedule: Q04DX003 (ip), vehicle: distilled water + Tween-80
[3] = T/C endpoint: mean survival time, dose: 200.0 mg/kg/injection, schedule: Q04DX003 (ip), vehicle: distilled water + Tween-80
[4] = T/C endpoint: mean survival time, dose: 50.0 mg/kg/injection, schedule: Q01DX009 (ip), vehicle: saline with Tween-80
[5] = T/C endpoint: mean survival time, dose: 100.0 mg/kg/injection, schedule: Q01DX009 (ip), vehicle: saline with Tween-80
[6] = T/C endpoint: mean survival time, dose: 200.0 mg/kg/injection, schedule: Q01DX009 (ip), vehicle: saline with Tween-80
[7] = T/C endpoint: mean survival time, dose: 400.0 mg/kg/injection, schedule: Q01DX009 (ip), vehicle: saline with Tween-80
[8] = T/C endpoint: mean survival time, dose: 400.0 mg/kg/injection, schedule: Q04DX003 (ip), vehicle: saline with Tween-80
[9] = T/C endpoint: mean survival time, dose: 400.0 mg/kg/injection, schedule: Q01DX001 (ip), vehicle: saline
[10] = T/C endpoint: mean survival time, dose: 300.0 mg/kg/injection, schedule: Q01DX001 (ip), vehicle: saline
[11] = T/C endpoint: mean survival time, dose: 200.0 mg/kg/injection, schedule: Q04DX003 (ip), vehicle: saline with Tween-80
[12] = T/C endpoint: mean survival time, dose: 75.0 mg/kg/injection, schedule: Q01DX001 (ip), vehicle: saline
[13] = T/C endpoint: mean survival time, dose: 150.0 mg/kg/injection, schedule: Q01DX001 (ip), vehicle: saline
[14] = T/C endpoint: mean survival time, dose: 400.0 mg/kg/injection, schedule: Q01DX001 (ip), vehicle: saline with Tween-80
[15] = T/C endpoint: median survival time, dose: 5.0 mg/kg/injection, schedule: Q01DX009 (ip), vehicle: saline with Tween-80

O=[N+]([O-])c1cccc(Cc2nc3ccccc3nc2-c2ccccc2)c1
survivor count [1]: 6 of 6

C1N2CN3CN1CN(C2)C3.[Cl][Pt]([Cl])[Cl]
survivor count [2]: 5 of 6 | survivor count [3]: 1 of 6

CN(C)N=Nc1ccc(Cl)cc1C(=O)O
T/C (T/C endpoint: mean survival time, dose: 178.0 mg/kg/injection, schedule: Q04DX003 (ip), vehicle: other): 141 % of control | survivor count (T/C endpoint: mean survival time, dose: 600.0 mg/kg/injection, schedule: Q04DX003 (ip), vehicle: other): 5 of 6

BrCc1c2ccccc2c(CBr)c2c1ccc1ccccc12
survivor count (T/C endpoint: mean survival time, dose: 400.0 mg/kg/injection, schedule: Q04DX002 (ip), vehicle: Klucel (hydroxypropylcellulose) (HPC)): 1 of 3

CC(C)c1ccccc(=O)c1O.CC(C)c1ccccc(=O)c1O.[Cu]
survivor count [4]: 2 of 6 | survivor count [5]: 0 of 6 | survivor count [6]: 0 of 6

O=C(O)C1C2CC(C1C(=O)O)C(C(=O)O)C2C(=O)O (configuration not stated)
survivor count [7]: 5 of 6

COc1cc(C(=O)C=O)cc(OC)c1OC
survivor count [5]: 3 of 6 | survivor count [6]: 2 of 6 | survivor count [8]: 3 of 6

Nc1nc2ccccc2c2c1C(=O)NC2=O
survivor count [8]: 6 of 6

Cc1ccc(NCCNCC(C)(C)O)c2c(=O)c3ccccc3sc12
survivor count (T/C endpoint: mean survival time, dose: 100.0 mg/kg/injection, schedule: Q01DX001 (ip), vehicle: saline): 6 of 6 | survivor count (T/C endpoint: mean survival time, dose: 200.0 mg/kg/injection, schedule: Q01DX001 (ip), vehicle: saline): 4 of 6 | survivor count [9]: 2 of 6

CCC[CH2][Sn]([CH2]C)([CH2]C)[O]C(C)=O
survivor count (T/C endpoint: mean survival time, dose: 10.0 mg/kg/injection, schedule: Q01DX009 (ip), vehicle: saline with Tween-80): 0 of 6

O=Cc1ccc([N+](=O)[O-])s1
survivor count [5]: 1 of 6

Cc1cccc(C)c1N=NN(C)C
T/C (T/C endpoint: mean survival time, dose: 50.0 mg/kg/injection, schedule: Q01DX009 (ip), vehicle: other): 125 % of control [2 of 2 alive] | T/C [4]: 134 % of control | survivor count (T/C endpoint: mean survival time, dose: 100.0 mg/kg/injection, schedule: Q01DX009 (ip), vehicle: other): 0 of 2 | survivor count [5]: 2 of 6 | survivor count (T/C endpoint: mean survival time, dose: 200.0 mg/kg/injection, schedule: Q01DX009 (ip), vehicle: other): 0 of 2 | survivor count (T/C endpoint: mean survival time, dose: 400.0 mg/kg/injection, schedule: Q01DX009 (ip), vehicle: other): 0 of 2

CCOC(=O)c1ncsc1NC(=O)NC
survivor count [10]: 1 of 6

CC([NH-])C([NH-])O.O=[N+]([O-])O.O=[N+]([O-])O.[Pt+2] (configuration not stated)
T/C (T/C endpoint: mean survival time, dose: 6.25 mg/kg/injection, schedule: Q04DX003 (ip), vehicle: saline): 139 % of control

CCCCCCCCCCCCCCCC(=O)Oc1ccc(/C(CC)=C(/CC)c2ccc(OC(=O)CCCCCCCCCCCCCCC)cc2)cc1
survivor count (T/C endpoint: mean survival time, dose: 25.0 mg/kg/injection, schedule: Q01DX009 (ip), vehicle: saline with Tween-80): 6 of 6 | survivor count [4]: 6 of 6

Cc1c(O)c(Br)c(C)c(O)c1Br (tested in a mixture with another compound)
survivor count [9]: 0 of 6

CO[C@H]1Nc2c(ccc(C)c2O)C(=O)N2C=C(/C=C/C(N)=O)C[C@@H]12
survivor count (T/C endpoint: mean survival time, dose: 0.6 mg/kg/injection, schedule: Q01DX015 (ip), vehicle: saline): 6 of 6 | T/C (T/C endpoint: mean survival time, dose: 0.66 mg/kg/injection, schedule: Q04DX003 (ip), vehicle: saline with Tween-80): 127 % of control | T/C (T/C endpoint: mean survival time, dose: 1.0 mg/kg/injection, schedule: Q04DX003 (ip), vehicle: saline with Tween-80): 136 % of control [5 of 6 alive] | survivor count (T/C endpoint: mean survival time, dose: 2.0 mg/kg/injection, schedule: Q04DX003 (ip), vehicle: saline with Tween-80): 0 of 6 | survivor count (T/C endpoint: mean survival time, dose: 4.0 mg/kg/injection, schedule: Q04DX003 (ip), vehicle: saline with Tween-80): 0 of 6 | T/C (T/C endpoint: median survival time, dose: 0.08 mg/kg/injection, schedule: Q01DX005 (ip), vehicle: DMSO): 130 % of control | T/C (T/C endpoint: median survival time, dose: 0.16 mg/kg/injection, schedule: Q01DX005 (ip), vehicle: DMSO): 146 % of control | T/C (T/C endpoint: median survival time, dose: 0.32 mg/kg/injection, schedule: Q01DX005 (ip), vehicle: DMSO): 144 % of control [5 of 6 alive]

C[N+](C)(Cc1ccc(F)cc1)C1c2ccccc2-c2ccccc21
survivor count (T/C endpoint: mean survival time, dose: 100.0 mg/kg/injection, schedule: Q04DX003 (ip), vehicle: saline with Tween-80): 1 of 6 | survivor count [11]: 0 of 6 | survivor count [8]: 0 of 6

O=C(CC[n+]1ccccc1)NCCCCCCNC(=O)CC[n+]1ccccc1
survivor count [12]: 0 of 6 | survivor count [13]: 0 of 6 | survivor count [10]: 0 of 6

Cc1ccc([Si](OO[Si](c2ccccc2)(c2ccccc2)c2ccc(C)cc2)(c2ccccc2)c2ccccc2)cc1
survivor count [5]: 6 of 6 | survivor count [6]: 6 of 6 | survivor count [7]: 6 of 6

O=C1c2ccccc2C(=O)c2c(NCCCNCCO)ccc(NCCCNCCO)c21
survivor count [5]: 3 of 6

Cc1ccc(NC(=O)NCCCCCCNC(=O)Nc2ccc(C)c(Cl)c2)cc1Cl
survivor count [1]: 6 of 6

O=NC1C(=O)C2CC1CC2C(=O)OC(=O)C1CC2CC1C(=O)C2N=O (configuration not stated)
survivor count (T/C endpoint: mean survival time, dose: 300.0 mg/kg/injection, schedule: Q01DX001 (ip), vehicle: other): 0 of 6

NC(=O)N/N=C1/CCCC2CCCCC12 (configuration not stated)
survivor count (T/C endpoint: mean survival time, dose: 75.0 mg/kg/injection, schedule: Q04DX003 (ip), vehicle: saline with Tween-80): 6 of 6

N#CC(C#N)=Cc1ccc(Cl)cc1
survivor count [11]: 3 of 3 | survivor count [8]: 0 of 3

C1CCC(C2CCCC[N-]2)[N-]C1.C1CCC(C2CCCC[N-]2)[N-]C1.[Cl][Ru][Cl] (configuration not stated)
survivor count [2]: 0 of 6 | survivor count [3]: 0 of 6

CCOC(=O)c1ccc(NC(=O)Nc2nccs2)cc1
T/C [6]: 125 % of control | survivor count [7]: 2 of 6

COc1cc(/C=C\[N+](=O)[O-])c([N+](=O)[O-])cc1OCc1ccccc1
survivor count [14]: 0 of 6

O=c1[nH]ccc2sccc12
survivor count [11]: 2 of 6 | survivor count [7]: 3 of 6

CCOC(=O)Nc1cc2c(c(N)n1)N=C(c1ccccc1)CN2
T/C (T/C endpoint: median survival time, dose: 1.25 mg/kg/injection, schedule: Q01DX009 (ip), vehicle: saline with Tween-80): 103, 112, 114, 136 % of control | T/C (T/C endpoint: median survival time, dose: 2.5 mg/kg/injection, schedule: Q01DX009 (ip), vehicle: saline with Tween-80): 118, 130, 135, 154 % of control | T/C [15]: 118, 136, 176 % of control | survivor count [15]: 5 of 6 | survivor count (T/C endpoint: median survival time, dose: 10.0 mg/kg/injection, schedule: Q01DX009 (ip), vehicle: saline with Tween-80): 0 of 6 and 1 of 6 | survivor count (T/C endpoint: median survival time, dose: 20.0 mg/kg/injection, schedule: Q01DX009 (ip), vehicle: saline with Tween-80): 0 of 6

CN1CCC23C(=O)CC4C(=CCOC5CC(=O)N(c6ccccc62)C3C54)C1 (configuration not stated)
survivor count [12]: 0 of 6 | survivor count [13]: 0 of 6 | survivor count [10]: 0 of 6

O=S1(=O)CC2(C1)CS(=O)(=O)C2
survivor count [14]: 1 of 3

C=CCOC(=O)Oc1ccccc1Cl
survivor count [6]: 6 of 6 | survivor count [7]: 0 of 6 | survivor count [8]: 0 of 6

N=c1ccn2c(n1)OC1C(OC(=O)C34CC5CC(CC(C5)C3)C4)C(COC(=O)C34CC5CC(CC(C5)C3)C4)OC12 (configuration not stated)
survivor count (T/C endpoint: mean survival time, dose: 100.0 mg/kg/injection, schedule: Q01DX005 (ip), vehicle: distilled water + Tween-80): 3 of 6 | survivor count (T/C endpoint: mean survival time, dose: 200.0 mg/kg/injection, schedule: Q01DX005 (ip), vehicle: distilled water + Tween-80): 1 of 6

CCC(/C=N\O)CC
survivor count [9]: 2 of 4

O=C(N=C1OC2C(OC(=O)c3ccccc3)C(COC(=O)c3ccccc3)OC2N1C(=O)c1ccccc1)c1ccccc1 (configuration not stated)
survivor count (T/C endpoint: mean survival time, dose: 400.0 mg/kg/injection, schedule: Q01DX009 (ip), vehicle: saline): 3 of 6
